This passage reports binding result and Kd results from US5874218.

Chains of the proteins cited; added tags and fusions are not shown. Chains listed by the source or under a name are the forms on record and can include a tag or linker.
hLH (printed hLS) (Homo sapiens), one chain, as listed by the source, chain 1 of 2: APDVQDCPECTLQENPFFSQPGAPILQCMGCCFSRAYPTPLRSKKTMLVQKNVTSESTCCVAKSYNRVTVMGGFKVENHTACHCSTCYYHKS
hFSH (Homo sapiens), one chain, as listed by the source, chain 2 of 2: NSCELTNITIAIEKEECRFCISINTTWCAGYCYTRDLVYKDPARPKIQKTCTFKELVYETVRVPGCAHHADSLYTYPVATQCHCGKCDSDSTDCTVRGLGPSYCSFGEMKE
hTSH (thyroid stimulating hormone) (Homo sapiens), one chain, as listed by the source, chain 2 of 2: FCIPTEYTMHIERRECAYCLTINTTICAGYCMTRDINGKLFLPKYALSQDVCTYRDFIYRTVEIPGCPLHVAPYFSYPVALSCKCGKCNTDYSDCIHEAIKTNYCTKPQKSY
hLH (printed hLS) (Homo sapiens), one chain, as listed by the source, chain 2 of 2: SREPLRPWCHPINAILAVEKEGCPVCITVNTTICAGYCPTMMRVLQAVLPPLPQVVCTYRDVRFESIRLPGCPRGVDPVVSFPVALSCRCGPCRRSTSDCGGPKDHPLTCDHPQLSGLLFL

Construct, isoform or probe ends are uncertain for at least one entry. For some of these results: The comparison behind a weaker result is the experiment's own reference, which may not be listed here.

Test in all cases: binding assay
Series [1] deals with hLH (printed hLS) (Homo sapiens). The conditions noted are these: 2'-NH2 on all C and U; CITED; unable to bind with high affinity, especially with competing tRNA; label: internally radiolabeled.
The test system of series [2] is hCG (chorionic gonadotropin) (Homo sapiens). The conditions noted are these: 2'-NH2 on all C and U; CITED; unable to bind with high affinity, especially with competing tRNA; purified native protein; label: internally radiolabeled.
Series [3] concerns hTSH (thyroid stimulating hormone) (Homo sapiens). The note with it: 2'-NH2 on all C and U; CITED; from US application 08/488,402; purified native protein; protein details: Becton Dickinson, Mr 27,700, 9 IU/mg; label: internally radiolabeled.
Series [4] concerns hFSH (Homo sapiens). The note with it: 2'-NH2 on all C and U; CITED; unable to bind with high affinity, especially with competing tRNA; label: internally radiolabeled.

For the sequence “GGGAGGACGAUGCGGAUGUUGGCAGCAGGGUCCGACGGCGUAACCUUGCCAGCUGCAGACGACUCGCCCGA [T-15]”, the binding result in series [1], in series [2] and in series [4] was “binds more weakly” in each case. Moreover, in series [3], the Kd – broadly, the constant that tells how readily two partners part at equilibrium – amounted to 2.5 nM.
